# No constants are given. Whether binding was seen depends on the method and setting. In cells and extracts the contact can be indirect. Some results given as binding are weak or reduced against the parent protein; the word gives no strength. For some assays here: Sequences can lack the tags named with a protein.
# Chains of the proteins cited; added tags and fusions are not shown. Residues count along the entry.
# UniProt P17655, residues 20-700: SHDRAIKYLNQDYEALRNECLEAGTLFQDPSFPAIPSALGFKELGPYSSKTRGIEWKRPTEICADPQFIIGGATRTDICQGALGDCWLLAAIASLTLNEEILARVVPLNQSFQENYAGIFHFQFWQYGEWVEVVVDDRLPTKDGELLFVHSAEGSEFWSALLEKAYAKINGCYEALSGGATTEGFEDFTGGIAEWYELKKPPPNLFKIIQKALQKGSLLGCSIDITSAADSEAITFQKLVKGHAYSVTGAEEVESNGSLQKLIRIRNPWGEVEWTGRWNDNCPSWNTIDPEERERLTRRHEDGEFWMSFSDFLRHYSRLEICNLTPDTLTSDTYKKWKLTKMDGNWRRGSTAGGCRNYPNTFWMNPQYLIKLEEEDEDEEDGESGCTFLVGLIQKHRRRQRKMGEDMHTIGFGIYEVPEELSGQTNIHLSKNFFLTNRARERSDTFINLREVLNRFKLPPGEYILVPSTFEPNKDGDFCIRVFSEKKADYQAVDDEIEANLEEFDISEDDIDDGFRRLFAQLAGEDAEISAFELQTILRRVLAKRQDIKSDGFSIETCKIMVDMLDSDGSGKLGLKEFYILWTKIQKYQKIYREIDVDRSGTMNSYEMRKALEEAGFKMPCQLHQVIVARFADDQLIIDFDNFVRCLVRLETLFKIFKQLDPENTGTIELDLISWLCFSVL
# UniProt P07384: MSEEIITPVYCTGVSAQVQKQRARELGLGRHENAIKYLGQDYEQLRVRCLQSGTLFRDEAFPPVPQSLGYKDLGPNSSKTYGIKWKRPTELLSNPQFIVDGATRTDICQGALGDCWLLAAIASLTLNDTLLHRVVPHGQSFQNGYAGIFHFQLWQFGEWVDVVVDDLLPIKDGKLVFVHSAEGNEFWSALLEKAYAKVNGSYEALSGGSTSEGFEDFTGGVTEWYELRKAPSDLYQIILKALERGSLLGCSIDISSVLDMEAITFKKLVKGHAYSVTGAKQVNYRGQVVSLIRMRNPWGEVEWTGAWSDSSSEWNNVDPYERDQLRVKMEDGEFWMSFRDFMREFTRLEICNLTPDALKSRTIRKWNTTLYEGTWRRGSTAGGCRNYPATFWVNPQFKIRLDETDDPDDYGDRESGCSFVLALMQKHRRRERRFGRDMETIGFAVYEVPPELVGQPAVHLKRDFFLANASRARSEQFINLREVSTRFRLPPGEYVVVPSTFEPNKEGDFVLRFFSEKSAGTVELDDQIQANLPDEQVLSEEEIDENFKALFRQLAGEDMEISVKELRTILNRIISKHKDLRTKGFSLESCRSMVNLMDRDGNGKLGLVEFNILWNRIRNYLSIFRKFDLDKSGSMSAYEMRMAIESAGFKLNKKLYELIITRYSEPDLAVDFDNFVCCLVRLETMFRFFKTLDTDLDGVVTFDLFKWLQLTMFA
# UniProt Q9P2J5: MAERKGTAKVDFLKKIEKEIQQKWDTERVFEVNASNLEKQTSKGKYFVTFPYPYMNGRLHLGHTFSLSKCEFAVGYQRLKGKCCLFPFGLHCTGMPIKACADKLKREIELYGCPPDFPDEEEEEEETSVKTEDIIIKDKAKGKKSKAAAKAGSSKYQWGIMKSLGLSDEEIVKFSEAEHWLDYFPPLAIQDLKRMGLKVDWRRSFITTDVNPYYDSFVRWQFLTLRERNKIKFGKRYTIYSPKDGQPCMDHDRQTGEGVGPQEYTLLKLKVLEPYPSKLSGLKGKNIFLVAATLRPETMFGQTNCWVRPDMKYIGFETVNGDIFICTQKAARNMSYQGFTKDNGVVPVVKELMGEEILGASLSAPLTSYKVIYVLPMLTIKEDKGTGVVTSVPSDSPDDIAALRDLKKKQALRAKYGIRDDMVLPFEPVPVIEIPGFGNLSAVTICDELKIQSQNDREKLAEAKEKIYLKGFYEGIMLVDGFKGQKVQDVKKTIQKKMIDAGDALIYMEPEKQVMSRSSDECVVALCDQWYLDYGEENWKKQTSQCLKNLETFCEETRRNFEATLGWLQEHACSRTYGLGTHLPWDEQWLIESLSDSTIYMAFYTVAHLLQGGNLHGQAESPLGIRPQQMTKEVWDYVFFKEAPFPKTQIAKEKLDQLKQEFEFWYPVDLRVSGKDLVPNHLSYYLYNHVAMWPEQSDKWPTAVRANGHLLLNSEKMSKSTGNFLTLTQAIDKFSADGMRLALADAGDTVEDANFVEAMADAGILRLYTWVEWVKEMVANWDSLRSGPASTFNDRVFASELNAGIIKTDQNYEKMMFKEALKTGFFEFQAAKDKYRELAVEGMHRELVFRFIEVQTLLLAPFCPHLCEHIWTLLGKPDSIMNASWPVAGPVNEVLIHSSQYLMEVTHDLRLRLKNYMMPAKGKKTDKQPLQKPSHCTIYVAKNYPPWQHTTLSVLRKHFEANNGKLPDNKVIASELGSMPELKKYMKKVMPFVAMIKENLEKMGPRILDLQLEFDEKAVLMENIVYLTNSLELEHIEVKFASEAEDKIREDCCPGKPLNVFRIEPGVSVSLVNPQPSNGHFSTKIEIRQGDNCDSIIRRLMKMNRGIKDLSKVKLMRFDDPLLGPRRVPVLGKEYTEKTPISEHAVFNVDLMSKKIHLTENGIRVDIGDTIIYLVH
# UniProt P07814: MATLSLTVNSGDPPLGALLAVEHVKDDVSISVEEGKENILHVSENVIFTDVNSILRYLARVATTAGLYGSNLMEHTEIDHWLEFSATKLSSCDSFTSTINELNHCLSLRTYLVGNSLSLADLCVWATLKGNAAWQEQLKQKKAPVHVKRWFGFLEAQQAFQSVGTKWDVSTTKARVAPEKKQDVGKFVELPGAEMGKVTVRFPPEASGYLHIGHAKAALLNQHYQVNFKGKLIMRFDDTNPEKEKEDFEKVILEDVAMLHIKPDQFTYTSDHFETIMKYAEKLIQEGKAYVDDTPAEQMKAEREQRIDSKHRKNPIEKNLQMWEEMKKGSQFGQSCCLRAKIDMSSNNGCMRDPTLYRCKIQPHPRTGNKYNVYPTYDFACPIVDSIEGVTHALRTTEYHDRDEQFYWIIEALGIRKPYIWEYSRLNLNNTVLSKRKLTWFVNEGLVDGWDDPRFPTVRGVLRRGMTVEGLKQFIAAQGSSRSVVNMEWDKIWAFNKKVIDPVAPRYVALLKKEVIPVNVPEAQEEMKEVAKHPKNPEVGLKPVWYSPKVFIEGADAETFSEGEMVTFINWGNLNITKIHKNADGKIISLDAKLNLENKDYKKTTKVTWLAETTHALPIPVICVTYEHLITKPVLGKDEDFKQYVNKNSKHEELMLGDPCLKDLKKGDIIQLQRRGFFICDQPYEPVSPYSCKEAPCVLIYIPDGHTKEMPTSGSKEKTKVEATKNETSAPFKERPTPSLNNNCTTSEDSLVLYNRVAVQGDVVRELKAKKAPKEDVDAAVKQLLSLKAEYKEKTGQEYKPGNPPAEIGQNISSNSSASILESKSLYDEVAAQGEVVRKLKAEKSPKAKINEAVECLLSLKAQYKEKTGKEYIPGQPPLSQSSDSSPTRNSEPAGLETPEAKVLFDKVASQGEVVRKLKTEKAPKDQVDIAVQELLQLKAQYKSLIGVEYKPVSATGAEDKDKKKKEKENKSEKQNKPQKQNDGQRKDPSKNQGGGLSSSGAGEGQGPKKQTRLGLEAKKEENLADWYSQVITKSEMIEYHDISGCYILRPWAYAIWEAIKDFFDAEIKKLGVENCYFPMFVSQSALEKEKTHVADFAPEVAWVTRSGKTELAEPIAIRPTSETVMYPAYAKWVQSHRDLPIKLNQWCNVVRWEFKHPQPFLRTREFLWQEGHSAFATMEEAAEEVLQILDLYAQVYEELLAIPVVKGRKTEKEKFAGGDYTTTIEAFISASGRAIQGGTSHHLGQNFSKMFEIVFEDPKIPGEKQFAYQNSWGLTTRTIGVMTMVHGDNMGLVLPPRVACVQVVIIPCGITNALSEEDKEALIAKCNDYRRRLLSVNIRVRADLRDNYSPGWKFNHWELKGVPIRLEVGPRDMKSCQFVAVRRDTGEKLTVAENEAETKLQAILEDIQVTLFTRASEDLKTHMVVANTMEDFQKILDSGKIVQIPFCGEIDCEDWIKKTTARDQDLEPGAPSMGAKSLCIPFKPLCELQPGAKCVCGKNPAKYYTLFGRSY
# UniProt P41252: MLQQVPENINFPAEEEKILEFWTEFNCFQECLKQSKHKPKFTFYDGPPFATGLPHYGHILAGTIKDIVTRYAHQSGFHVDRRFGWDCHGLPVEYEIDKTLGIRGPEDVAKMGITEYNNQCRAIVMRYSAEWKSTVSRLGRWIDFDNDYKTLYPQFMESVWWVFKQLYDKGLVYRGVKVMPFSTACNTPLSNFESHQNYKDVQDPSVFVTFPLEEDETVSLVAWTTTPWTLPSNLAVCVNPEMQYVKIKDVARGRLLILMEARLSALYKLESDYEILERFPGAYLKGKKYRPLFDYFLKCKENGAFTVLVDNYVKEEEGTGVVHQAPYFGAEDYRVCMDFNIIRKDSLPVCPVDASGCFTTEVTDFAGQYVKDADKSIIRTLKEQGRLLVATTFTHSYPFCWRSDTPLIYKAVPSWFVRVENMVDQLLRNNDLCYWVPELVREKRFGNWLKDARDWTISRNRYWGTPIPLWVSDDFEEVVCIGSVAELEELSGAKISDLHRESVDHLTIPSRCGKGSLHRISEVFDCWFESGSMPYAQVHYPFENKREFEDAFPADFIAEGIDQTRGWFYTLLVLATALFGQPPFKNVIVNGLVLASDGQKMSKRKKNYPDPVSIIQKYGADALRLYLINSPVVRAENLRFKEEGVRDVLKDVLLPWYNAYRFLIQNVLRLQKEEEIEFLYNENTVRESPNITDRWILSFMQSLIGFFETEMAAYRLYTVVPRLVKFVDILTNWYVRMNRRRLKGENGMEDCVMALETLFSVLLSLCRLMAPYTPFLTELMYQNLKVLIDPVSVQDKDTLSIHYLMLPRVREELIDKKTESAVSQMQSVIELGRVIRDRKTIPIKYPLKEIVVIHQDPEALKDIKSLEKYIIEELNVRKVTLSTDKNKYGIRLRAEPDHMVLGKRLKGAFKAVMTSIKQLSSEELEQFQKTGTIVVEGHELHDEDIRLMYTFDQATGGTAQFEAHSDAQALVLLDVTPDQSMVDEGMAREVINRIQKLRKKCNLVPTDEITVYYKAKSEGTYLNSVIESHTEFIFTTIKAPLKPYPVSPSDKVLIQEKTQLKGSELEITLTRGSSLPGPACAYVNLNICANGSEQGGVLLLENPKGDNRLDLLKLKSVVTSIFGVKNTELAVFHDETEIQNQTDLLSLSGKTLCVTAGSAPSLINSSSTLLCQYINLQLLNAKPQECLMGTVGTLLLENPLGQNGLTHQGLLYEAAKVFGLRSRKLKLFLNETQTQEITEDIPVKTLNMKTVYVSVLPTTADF
# UniProt Q15046: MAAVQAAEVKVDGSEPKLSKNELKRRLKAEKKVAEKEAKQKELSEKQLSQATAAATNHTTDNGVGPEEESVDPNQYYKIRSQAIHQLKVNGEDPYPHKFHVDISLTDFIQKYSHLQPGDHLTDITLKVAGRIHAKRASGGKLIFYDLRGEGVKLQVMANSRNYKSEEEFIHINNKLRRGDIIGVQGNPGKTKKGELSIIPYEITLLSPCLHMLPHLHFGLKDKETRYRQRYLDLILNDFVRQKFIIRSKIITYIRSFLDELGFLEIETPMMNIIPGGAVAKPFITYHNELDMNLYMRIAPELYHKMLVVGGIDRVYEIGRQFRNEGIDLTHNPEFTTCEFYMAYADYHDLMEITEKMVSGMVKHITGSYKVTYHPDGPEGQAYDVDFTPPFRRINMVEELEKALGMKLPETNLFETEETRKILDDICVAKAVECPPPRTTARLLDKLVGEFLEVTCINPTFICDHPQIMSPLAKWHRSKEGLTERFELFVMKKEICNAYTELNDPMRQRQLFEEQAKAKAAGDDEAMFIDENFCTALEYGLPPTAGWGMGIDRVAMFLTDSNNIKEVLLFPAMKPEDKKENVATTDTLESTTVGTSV
# How the values were obtained:
# FLAG-calpain 2 (human) [1] = target: FLAG-calpain 2 (human) (UniProt P17655); assay: co-IP; FLAG-calpain 2 co-overexpressed with Myc-LeuRS in 293T; clarified lysate, IP with anti-FLAG antibody, Western blot with anti-Myc; mouse IgG as negative control
# FLAG-ArgRSΔN63 (human) = target: T1, FLAG-ArgRSΔN63 (human) (UniProt P54136); assay: co-IP; 293T extracts overexpressing FLAG-tagged full-length or truncated ArgRS, p43 or GlnRS; IP with FLAG antibody, Western blot with antibodies against MSC components
# T1 sequence: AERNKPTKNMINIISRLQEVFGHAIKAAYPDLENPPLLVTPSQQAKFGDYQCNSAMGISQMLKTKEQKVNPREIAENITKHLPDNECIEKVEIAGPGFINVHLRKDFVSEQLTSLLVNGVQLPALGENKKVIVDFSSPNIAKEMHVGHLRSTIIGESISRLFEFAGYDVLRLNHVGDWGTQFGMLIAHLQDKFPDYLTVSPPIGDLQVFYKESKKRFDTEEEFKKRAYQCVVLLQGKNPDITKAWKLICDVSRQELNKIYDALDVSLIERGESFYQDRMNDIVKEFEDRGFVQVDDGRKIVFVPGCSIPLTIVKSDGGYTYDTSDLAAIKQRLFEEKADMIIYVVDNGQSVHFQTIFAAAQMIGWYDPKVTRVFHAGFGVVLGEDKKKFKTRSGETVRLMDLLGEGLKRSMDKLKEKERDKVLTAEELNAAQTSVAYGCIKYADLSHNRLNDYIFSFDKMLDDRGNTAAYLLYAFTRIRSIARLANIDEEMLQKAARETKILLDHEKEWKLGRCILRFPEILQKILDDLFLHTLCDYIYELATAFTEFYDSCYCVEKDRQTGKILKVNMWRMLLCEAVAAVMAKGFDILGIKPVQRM
# [2] = target: T2, p43-N106 with C-terminal FLAG tag (human) (UniProt Q12904); assay: as above
# T2 sequence: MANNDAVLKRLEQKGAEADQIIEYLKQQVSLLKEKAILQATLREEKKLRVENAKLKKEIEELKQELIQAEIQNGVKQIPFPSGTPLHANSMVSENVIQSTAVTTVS
# [3] = target: T3, p43ΔN106 with C-terminal FLAG tag (human) (UniProt Q12904); assay: as above
# T3 sequence: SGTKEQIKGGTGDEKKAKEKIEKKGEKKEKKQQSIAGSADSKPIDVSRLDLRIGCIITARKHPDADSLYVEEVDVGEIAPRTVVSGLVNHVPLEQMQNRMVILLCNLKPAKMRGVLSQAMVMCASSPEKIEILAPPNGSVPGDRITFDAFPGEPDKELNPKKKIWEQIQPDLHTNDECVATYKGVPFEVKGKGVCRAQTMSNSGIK
# FLAG-p43 (human) = target: T4, FLAG-p43 (human) (UniProt Q12904); assay: co-IP; MSC purification: 293T transfected with FLAG-ArgRS or FLAG-p43, lysate on anti-FLAG M2 affinity gel 2 h at 4 °C, washed with PBS four times, eluted with 3xFLAG peptides; Coomassie staining and Western blots
# T4 sequence: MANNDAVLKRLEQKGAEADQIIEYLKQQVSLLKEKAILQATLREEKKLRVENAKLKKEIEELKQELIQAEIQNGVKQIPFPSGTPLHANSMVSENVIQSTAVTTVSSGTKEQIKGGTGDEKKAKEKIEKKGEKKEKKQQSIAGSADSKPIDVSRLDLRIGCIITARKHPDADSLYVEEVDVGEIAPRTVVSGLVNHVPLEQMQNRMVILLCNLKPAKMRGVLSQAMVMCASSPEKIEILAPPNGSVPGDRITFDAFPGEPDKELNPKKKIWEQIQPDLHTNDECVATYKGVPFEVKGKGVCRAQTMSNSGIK
# FLAG-calpain 2 (human) [4] = target: FLAG-calpain 2 (human) (UniProt P17655); assay: co-IP; FLAG-calpain 2 or FLAG-calpain 1 overexpressed in 293T; IP with anti-FLAG antibody, Western blot with antibodies against endogenous MSC components; mouse IgG as negative control
# FLAG-calpain 1 (human) = FLAG-calpain 1 (human) (UniProt P07384); assay: as above
# FLAG-calpain 2 (human) [5] = target: FLAG-calpain 2 (human) (UniProt P17655); assay: co-IP; data not shown; FLAG-calpain 2 overexpressed in 293T, co-immunoprecipitation
binding (FLAG-calpain 2 (human) [1]),binding (FLAG-ArgRSΔN63 (human)),binding [2],binding [3],binding (FLAG-p43 (human)),binding (FLAG-calpain 2 (human) [4]),binding (FLAG-calpain 1 (human)),binding (FLAG-calpain 2 (human) [5]),Substance
binds,–,–,–,–,–,–,–,Myc-LeuRS (from UniProt Q9P2J5 1-1176) (enzyme)
–,no binding,binds,no binding,binds,binds,no binding,–,"glutamylprolyl-tRNA synthetase (EPRS), endogenous (from UniProt P07814 1-1512) (enzyme)"
–,–,–,–,binds,–,–,–,"isoleucyl-tRNA synthetase (IleRS), endogenous (from UniProt P41252 1-1262) (enzyme)"
–,–,–,–,–,–,no binding,binds,"leucyl-tRNA synthetase (LeuRS), endogenous (from UniProt Q9P2J5 1-1176) (enzyme)"
–,–,binds,no binding,–,binds,binds weakly,–,"lysyl-tRNA synthetase (LysRS), endogenous (from UniProt Q15046 1-597) (enzyme)"

# Reference: article PMC4646279
